From publication doi:10.1101/581785 come the findings set out here.

No constants are given. Whether binding was seen depends on the method and setting. Binding seen in cells or lysates may run through a third protein. Some results given as binding are weak or reduced against the parent protein; the word gives no strength. For some assays here: Where a sequence is shown, tags or fusion partners need not be part of it.

Assay [1] concerns the target ZAP-S, endogenous in HEK293T cells (human (endogenous in HEK293T)), Q7Z2W4. As to the kind of experiment: co-IP. The following applies: remark: other sources report otherwise.
Assay [2] addresses KHNYN-1-FLAG (human), O15037. As to the kind of experiment: co-IP. The note with it: remark: other sources report otherwise.

B1: KHNYN-1-FLAG, O15037 1-678 (protein)
chain: MPTWGARPASPDRFAVSAEAENKVREQQPHVERIFSVGVSVLPKDCPDNPHIWLQLEGPKENASRAKEYLKGLCSPELQDEIHYPPKLHCIFLGAQGFFLDCLAWSTSAHLVPRAPGSLMISGLTEAFVMAQSRVEELAERLSWDFTPGPSSGASQCTGVLRDFSALLQSPGDAHREALLQLPLAVQEELLSLVQEASSGQGPGALASWEGRSSALLGAQCQGVRAPPSDGRESLDTGSMGPGDCRGARGDTYAVEKEGGKQGGPREMDWGWKELPGEEAWEREVALRPQSVGGGARESAPLKGKALGKEEIALGGGGFCVHREPPGAHGSCHRAAQSRGASLLQRLHNGNASPPRVPSPPPAPEPPWHCGDRGDCGDRGDVGDRGDKQQGMARGRGPQWKRGARGGNLVTGTQRFKEALQDPFTLCLANVPGQPDLRHIVIDGSNVAMVHGLQHYFSSRGIAIAVQYFWDRGHRDITVFVPQWRFSKDAKVRESHFLQKLYSLSLLSLTPSRVMDGKRISSYDDRFMVKLAEETDGIIVSNDQFRDLAEESEKWMAIIRERLLPFTFVGNLFMVPDDPLGRNGPTLDEFLKKPARTQGSSKAQHPSRGFAEHGKQQQGREEEKGSGGIRKTRETERLRRQLLEVFWGQDHKVDFILQREPYCRDINQLSEALLSLNF
Take B1: the binding entry in assay [1] is “binds”.

B2: ZAP-S, endogenous in HEK293T cells, Q7Z2W4-2 1-699 (protein)
chain: MADPEVCCFITKILCAHGGRMALDALLQEIALSEPQLCEVLQVAGPDRFVVLETGGEAGITRSVVATTRARVCRRKYCQRPCDNLHLCKLNLLGRCNYSQSERNLCKYSHEVLSEENFKVLKNHELSGLNKEELAVLLLQSDPFFMPEICKSYKGEGRQQICNQQPPCSRLHICDHFTRGNCRFPNCLRSHNLMDRKVLAIMREHGLNPDVVQNIQDICNSKHMQKNPPGPRAPSSHRRNMAYRARSKSRDRFFQGSQEFLASASASAERSCTPSPDQISHRASLEDAPVDDLTRKFTYLGSQDRARPPSGSSKATDLGGTSQAGTSQRFLENGSQEDLLHGNPGSTYLASNSTSAPNWKSLTSWTNDQGARRKTVFSPTLPAARSSLGSLQTPEAVTTRKGTGLLSSDYRIINGKSGTQDIQPGPLFNNNADGVATDITSTRSLNYKSTSSGHREISSPRIQDAGPASRDVQATGRIADDADPRVALVNDSLSDVTSTTSSRVDDHDSEEICLDHLCKGCPLNGSCSKVHFHLPYRWQMLIGKTWTDFEHMETIEKGYCNPGIHLCSVGSYTINFRVMSCDSFPIRRLSTPSSVTKPANSVFTTKWIWYWKNESGTWIQYGEEKDKRKNSNVDSSYLESLYQSCPRGVVPFQAGSRNYELSFQGMIQTNIASKTQKDVIRRPTFVPQWYVQQMKRGPE
In the case of B2, the binding entry in assay [2] is recorded as “binds”.
